Experimental findings from PMC6686035 are described below.

By UniProt entry, the sequences of proteins in these tests, tags left out. Where a name states a change or a piece, a line headed by the entry shows the natural chain unless it says otherwise.
UniProt P69913: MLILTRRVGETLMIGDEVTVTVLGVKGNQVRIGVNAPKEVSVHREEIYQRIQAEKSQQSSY

Construct, isoform or probe ends are uncertain for at least one entry. At least one verdict was read from the data and is not stated in words by the source.

The series has as its target CsrA-His6 (Escherichia coli) (UniProt P69913). The series can be described thus: competition with a labelled probe. The conditions noted are these: unlabeled self competitor, EMSA: 0.5 nM RNA, 10 mM MgCl2, 100 mM KCl, 32.5 ng yeast RNA, 20 mM DTT, 7.5% glycerol, 4 U SUPERasin, 37 C 30 min (pH not stated), recombinant protein, protein details: His6 (C-terminal per name), label: 5'-32P.

[1] abbreviates: probe letters rebuilt from the primers and the genome.

As for “GAAGAUCAUCGUCAGAAUUGACUCCACGAUCACAUUUCGGACCGGCAGAAAGGAAUUAUUCUGCAAACAGUAAUUAUGGUGUUUUGAUUUAUCUUGCACCUCUCCACUUCUGGAUAUAAGGAUAUUAGGU [ftnB EMSA transcript]”, under setting [1], the binding result is listed as “binds”.

As to “GGGUGGAAGCGAAGGAGUCAAAAAAUGAAAGGUGAUACUAAAGUUAUAAAUUAUCUCAACAAACUGUUGGGAAAUGAGCUUGU [bfr EMSA transcript]”, the binding result under setting [1] is listed as “binds”. On to “GGGUUAAUUACUGGGACAUAACAUCAAGAGGAUAUGAAAUUAUGAGUACCGC [dps EMSA transcript]”, for which the binding result is recorded as “binds”.
